No constants are given. Whether binding was seen depends on the method and setting. Some results given as binding are weak or reduced against the parent protein; the word gives no strength.
Target: 重组人VEGF-His (human) (UniProt P15692)
Test: SPR, Biacore T200, VEGF-His as analyte (reference antibody)

Sequences of proteins named here, by UniProt entry; tags and fusion partners are left off. A change or cut given only in a name is not applied to a line headed by its entry. A line that says so, or that is headed by a name, gives the form on record, which may keep a tag or linker.
重组人VEGF-His (P15692, form named): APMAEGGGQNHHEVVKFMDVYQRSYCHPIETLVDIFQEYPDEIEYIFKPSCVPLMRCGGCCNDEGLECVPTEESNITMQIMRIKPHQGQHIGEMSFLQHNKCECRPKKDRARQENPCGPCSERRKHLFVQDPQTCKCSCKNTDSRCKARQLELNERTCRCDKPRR

B1: 抗人VEGF抗体P30-10-26 (antibody, V domains shown, not shown: a dimerising Fc or GST)
VH: EVQLVESGGGLVQPGGSLRLSCAASGFGLDYYAIGWFRQAPGKEREGVSCIGSSSKETNYADSVKGRFTISRDNAKNTVYLQMNSLRAEDTAVYYCTAGSPLCLISLQDHYGLYEYDYWGQGTLVTVSS
For B1, the binding was “binds”.

From patent CN117247456A
